Results deposited as PubChem BioAssay AID1259254 (NCATS, 2017)
The deposit covers about 59,000 reagents; shown is an unselected part. Over the whole deposit, about 1,550 (2.6%) got an active call. 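G2 share is only a proxy for re-replication; each gene was hit by three separate siRNAs, and active genes were retested.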 Unmarked entries are inactive. Reagents against one gene are numbered here. Further read-outs or replicates are left out here. No sequences are given here. The record does not give: the amount of reagent.

Assay: 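Finding genes that stop cells copying their DNA twice in one cycle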 (primary screen)
Cells: human HCT116 colorectal cancer cells
Knock-down reagent: single siRNA against human genes
Timing: 3 days
Measured: 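Nuclei stained with Hoechst and imaged; cell-cycle phase assigned by DNA content; G2 share scaled per plate, non-targeting siRNA 0%, GMNN siRNA 100%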
Reading the numbers: G2 robust z-score: higher = more G2 cells, more excess DNA replication
Active means: 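An siRNA counts as active if its G2 robust z-score lies at least 5 MADs above the screen median; here such calls match roughly 38% of GMNN control or more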

G2 robust z-score, by target gene and reagent
TMPRSS15: #1 -0.396; #2 1.73; #3 -0.464
LYZL1: #1 -0.332; #2 -0.592; #3 -0.551
NLRP14: #1 1.81; #2 -0.51; #3 0.671
S100PBP: #1 -0.0541; #2 -0.178; #3 1.78
GZMB: #1 -0.0974; #2 -1.6; #3 -0.225
PGBD3: #1 1.66; #2 -0.197; #3 -0.426
ERCC4: #1 -0.912; #2 2.21; #3 0.963
CTNNBL1: #1 -0.441; #2 -0.663; #3 -0.503
GDPGP1: #1 0.0418; #2 3.1; #3 0.506
PRLHR: #1 1.44; #2 -0.728; #3 0.478
AVEN: #1 0.365; #2 0.288; #3 -0.583
PHACTR2: #1 -0.11; #2 3.56; #3 0.64
DNAL1: #1 1.18; #2 -1.4; #3 0.205

Records above whose target name starts with A or a:
G2 robust z-score, by target gene and reagent
AVEN: #1 0.365; #2 0.288; #3 -0.583

Continued:
G2 robust z-score, by target gene and reagent
SLC22A2: #1 -0.846; #2 -0.51; #3 -0.28
AVPI1: #1 -0.192; #2 -0.135; #3 0.791
NCOA7: #1 -0.211; #2 2.35; #3 -0.59
CDV3: #1 -0.51; #2 0.225; #3 -0.748
HEATR3: #1 -0.772; #2 0.213; #3 0.358
CD5L: #1 0.203; #2 -0.224; #3 -0.237
LOC728999 (retired record): #1 0.0454; #2 10.8 (active); #3 -0.632
C9orf78: #1 -0.778; #2 3.28; #3 0.395
PLPP2: #1 -1.05; #2 0.683; #3 -0.378
THUMPD2: #1 4.23; #2 3.29; #3 1.18
